The other results are listed elsewhere or left out.
What was measured:
Experiment in all cases: log2 fold change, soluble protein after heating vs DMSO (PISA); higher = thermal stabilisation; K562 lysate, 10 uM; active = over 0.2 and 3.5 SD of the protein, either way, in both replicates (recomputed)
nilotinib = compound: Cc1cn(-c2cc(NC(=O)c3ccc(C)c(Nc4nccc(-c5cccnc5)n4)c3)cc(C(F)(F)F)c2)cn1 [nilotinib]
How it was run: (§1)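 To prepare the extract, K562 pellets were dounce-homogenised in PBS pH 7.4 with 1 mM MgCl2, giving crude material at 1 mg/mL protein. This was treated with 10 μM compound for 30 min, then heated in aliquots for 3 min over 48°C-58°C before pooling and addition of NP-40 to 0.5% at 4°C. Centrifugation at 21,000xg for 90 min left soluble protein in the supernatant, which TMTpro 16plex LC-MS/MS quantified with equalised channel sums. Results are log-two fold changes in thermal stability compared with solvent controls, from duplicates.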

The chains behind the UniProt entries cited, without tags or fusion partners. Where a name states a change or a piece, a line headed by the entry shows the natural chain unless it says otherwise.
UniProt O75534: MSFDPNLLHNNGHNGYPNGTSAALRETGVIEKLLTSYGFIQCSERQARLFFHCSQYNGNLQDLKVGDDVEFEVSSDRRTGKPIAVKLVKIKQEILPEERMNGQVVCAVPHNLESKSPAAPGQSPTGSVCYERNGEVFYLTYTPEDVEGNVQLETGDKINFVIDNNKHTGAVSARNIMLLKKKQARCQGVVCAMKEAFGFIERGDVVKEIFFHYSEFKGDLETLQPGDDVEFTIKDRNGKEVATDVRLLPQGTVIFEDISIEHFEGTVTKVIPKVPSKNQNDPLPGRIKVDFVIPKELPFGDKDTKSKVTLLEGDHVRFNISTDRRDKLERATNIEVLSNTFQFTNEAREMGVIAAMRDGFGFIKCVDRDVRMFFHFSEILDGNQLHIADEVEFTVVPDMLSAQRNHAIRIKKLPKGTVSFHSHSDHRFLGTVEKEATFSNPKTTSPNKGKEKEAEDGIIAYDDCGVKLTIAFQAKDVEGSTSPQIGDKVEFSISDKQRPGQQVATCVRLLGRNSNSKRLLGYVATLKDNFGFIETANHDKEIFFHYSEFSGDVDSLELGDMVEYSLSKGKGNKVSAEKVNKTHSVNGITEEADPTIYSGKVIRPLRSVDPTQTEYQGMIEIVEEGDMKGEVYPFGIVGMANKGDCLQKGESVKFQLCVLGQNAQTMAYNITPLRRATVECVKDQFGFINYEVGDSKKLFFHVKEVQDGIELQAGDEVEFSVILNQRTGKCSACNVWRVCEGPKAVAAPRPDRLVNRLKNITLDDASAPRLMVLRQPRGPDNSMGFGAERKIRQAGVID
UniProt Q96SW2: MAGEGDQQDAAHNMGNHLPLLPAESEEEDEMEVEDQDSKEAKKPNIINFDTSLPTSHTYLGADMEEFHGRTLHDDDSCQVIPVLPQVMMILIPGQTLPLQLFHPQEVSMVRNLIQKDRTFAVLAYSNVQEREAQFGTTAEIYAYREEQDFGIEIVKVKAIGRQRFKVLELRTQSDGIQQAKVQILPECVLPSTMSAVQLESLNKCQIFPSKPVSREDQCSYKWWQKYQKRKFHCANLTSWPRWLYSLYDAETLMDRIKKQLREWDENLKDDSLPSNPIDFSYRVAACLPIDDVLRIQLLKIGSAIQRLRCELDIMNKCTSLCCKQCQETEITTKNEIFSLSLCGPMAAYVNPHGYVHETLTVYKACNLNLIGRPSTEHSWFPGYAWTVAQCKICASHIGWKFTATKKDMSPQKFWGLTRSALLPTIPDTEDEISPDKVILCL
UniProt P53634: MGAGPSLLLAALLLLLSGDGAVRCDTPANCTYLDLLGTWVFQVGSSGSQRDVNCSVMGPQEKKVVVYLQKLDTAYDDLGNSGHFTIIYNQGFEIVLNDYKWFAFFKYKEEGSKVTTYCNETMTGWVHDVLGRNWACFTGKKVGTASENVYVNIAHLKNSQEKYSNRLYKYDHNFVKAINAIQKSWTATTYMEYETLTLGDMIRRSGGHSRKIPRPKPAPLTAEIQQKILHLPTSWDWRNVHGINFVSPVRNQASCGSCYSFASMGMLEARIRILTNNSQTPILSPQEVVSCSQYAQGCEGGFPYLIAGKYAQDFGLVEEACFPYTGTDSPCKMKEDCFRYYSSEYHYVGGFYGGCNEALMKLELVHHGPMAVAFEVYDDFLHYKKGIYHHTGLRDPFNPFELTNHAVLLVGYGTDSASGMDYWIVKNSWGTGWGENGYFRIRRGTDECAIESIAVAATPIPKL
UniProt Q9H0L4: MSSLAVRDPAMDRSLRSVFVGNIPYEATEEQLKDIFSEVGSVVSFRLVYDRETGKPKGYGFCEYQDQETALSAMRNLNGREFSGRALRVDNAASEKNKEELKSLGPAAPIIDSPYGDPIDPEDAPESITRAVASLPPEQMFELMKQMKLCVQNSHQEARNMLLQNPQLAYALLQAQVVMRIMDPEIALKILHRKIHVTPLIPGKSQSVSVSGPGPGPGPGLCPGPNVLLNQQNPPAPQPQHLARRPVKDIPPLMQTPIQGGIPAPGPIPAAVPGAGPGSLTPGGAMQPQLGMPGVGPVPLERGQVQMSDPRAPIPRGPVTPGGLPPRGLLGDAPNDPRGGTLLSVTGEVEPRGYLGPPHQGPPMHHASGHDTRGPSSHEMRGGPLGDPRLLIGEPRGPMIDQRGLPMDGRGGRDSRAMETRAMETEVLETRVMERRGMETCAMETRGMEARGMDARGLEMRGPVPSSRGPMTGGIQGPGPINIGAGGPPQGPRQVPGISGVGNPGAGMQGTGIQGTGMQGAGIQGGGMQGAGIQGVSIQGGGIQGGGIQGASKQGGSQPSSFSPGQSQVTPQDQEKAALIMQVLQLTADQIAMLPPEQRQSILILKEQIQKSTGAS
UniProt Q01459: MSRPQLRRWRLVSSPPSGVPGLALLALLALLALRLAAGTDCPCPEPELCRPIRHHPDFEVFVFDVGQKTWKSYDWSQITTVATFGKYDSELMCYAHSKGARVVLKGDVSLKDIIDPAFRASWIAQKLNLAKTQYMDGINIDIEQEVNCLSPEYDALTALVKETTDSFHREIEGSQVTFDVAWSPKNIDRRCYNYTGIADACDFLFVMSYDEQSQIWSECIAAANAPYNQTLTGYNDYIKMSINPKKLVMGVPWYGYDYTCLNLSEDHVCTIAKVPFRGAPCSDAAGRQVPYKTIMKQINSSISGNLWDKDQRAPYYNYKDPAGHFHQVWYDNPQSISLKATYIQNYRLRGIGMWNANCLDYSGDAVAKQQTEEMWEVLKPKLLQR
UniProt A4D126: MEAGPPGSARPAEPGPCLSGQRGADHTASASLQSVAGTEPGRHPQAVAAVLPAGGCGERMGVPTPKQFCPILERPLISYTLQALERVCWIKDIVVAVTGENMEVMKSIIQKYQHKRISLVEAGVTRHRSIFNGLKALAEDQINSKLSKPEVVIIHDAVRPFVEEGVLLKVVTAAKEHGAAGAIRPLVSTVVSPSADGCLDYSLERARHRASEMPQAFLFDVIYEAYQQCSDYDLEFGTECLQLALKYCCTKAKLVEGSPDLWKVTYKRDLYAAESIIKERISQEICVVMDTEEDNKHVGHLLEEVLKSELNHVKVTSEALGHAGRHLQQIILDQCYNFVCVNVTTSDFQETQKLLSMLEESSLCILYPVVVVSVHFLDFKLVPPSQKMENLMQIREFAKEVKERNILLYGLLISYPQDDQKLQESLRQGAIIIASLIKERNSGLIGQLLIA
UniProt Q9P013: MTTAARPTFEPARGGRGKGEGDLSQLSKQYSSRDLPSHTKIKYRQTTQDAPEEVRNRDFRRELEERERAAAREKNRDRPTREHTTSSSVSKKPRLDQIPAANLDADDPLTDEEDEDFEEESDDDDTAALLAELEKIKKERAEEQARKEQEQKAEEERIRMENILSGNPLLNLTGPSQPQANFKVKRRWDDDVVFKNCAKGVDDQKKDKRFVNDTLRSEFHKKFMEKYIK
UniProt Q53ET0: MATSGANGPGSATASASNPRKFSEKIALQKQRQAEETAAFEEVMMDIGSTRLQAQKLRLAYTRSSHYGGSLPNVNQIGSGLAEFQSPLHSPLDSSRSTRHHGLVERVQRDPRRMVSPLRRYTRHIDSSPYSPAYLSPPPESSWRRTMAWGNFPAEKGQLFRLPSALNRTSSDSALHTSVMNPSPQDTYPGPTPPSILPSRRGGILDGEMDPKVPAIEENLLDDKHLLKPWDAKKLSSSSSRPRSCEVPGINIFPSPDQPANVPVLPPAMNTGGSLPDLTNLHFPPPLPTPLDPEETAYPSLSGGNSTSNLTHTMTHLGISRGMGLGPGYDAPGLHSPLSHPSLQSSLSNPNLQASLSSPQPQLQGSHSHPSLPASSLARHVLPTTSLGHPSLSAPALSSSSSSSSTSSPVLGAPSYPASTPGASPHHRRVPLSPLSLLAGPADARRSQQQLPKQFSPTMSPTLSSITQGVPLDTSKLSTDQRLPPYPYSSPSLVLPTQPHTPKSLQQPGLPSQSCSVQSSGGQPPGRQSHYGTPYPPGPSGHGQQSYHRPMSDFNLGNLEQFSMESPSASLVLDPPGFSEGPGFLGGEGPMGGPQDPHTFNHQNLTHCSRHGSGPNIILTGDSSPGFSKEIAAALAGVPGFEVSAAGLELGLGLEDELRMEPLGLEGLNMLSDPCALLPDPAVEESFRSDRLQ
UniProt Q6UXH1: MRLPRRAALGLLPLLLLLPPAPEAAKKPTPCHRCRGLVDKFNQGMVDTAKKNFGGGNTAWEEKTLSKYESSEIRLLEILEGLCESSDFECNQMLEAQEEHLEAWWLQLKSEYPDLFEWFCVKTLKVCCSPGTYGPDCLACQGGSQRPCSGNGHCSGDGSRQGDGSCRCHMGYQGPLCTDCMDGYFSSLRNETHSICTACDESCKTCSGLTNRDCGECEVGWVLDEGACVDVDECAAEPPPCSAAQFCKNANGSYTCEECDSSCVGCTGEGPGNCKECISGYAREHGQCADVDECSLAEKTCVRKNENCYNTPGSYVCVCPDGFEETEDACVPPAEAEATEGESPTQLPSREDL
UniProt Q8TB03: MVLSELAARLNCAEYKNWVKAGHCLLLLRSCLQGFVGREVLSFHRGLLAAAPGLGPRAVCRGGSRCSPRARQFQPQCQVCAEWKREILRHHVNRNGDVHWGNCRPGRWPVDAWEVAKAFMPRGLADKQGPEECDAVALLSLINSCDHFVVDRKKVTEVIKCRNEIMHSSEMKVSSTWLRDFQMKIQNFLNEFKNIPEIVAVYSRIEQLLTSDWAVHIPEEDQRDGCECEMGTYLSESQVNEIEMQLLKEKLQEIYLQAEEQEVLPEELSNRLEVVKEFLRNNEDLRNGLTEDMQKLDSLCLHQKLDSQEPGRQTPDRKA
UniProt P01034: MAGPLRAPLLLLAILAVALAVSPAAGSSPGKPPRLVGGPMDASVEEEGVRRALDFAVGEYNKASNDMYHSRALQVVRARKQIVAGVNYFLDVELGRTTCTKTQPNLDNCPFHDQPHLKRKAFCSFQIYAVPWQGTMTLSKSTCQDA
UniProt Q9Y5B0: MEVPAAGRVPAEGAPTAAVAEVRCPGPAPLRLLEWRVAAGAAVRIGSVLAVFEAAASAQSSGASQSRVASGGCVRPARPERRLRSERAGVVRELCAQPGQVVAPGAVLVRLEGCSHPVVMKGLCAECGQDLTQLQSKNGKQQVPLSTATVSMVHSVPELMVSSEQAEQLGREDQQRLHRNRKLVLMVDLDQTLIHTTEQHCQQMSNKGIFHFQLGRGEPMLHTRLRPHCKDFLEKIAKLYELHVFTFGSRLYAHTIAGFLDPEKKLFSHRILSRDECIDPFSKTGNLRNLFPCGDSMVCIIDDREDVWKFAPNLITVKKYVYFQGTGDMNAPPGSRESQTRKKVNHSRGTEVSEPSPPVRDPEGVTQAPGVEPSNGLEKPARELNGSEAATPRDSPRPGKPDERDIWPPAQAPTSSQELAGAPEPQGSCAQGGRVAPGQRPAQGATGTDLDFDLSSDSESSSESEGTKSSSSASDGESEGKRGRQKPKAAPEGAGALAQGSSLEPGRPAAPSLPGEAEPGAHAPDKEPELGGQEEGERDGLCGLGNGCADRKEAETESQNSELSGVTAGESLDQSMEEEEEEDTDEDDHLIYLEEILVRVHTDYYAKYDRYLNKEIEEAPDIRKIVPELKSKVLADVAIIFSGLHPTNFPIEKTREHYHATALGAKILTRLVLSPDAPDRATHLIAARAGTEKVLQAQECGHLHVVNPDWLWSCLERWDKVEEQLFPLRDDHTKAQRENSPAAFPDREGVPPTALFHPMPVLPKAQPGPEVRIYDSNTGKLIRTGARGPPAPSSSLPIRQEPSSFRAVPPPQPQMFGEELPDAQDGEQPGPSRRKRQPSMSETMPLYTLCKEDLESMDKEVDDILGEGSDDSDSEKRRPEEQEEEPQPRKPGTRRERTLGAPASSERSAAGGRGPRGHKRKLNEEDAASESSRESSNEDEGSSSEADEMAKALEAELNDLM
UniProt P19784, whole entry, looked up: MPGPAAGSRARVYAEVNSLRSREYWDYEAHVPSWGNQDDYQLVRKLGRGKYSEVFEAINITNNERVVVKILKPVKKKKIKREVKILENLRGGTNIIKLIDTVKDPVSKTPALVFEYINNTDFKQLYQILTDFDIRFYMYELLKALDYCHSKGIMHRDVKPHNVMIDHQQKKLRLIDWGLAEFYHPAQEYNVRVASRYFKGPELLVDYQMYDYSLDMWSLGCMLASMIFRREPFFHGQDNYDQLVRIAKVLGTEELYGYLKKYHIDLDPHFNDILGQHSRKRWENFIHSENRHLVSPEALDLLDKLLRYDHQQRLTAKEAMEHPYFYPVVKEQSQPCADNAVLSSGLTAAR
UniProt P09668: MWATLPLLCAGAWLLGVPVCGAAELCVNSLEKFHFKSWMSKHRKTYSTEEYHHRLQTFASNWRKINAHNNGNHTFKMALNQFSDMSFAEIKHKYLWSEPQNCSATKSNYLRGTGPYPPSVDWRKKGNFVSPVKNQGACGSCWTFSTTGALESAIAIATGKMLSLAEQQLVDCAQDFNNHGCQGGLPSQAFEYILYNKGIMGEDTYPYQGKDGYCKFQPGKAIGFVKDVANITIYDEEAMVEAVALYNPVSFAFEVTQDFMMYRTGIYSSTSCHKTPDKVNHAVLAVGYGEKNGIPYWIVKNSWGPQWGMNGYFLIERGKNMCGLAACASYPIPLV

[1] = compound: Cc1nc(Nc2n[nH]c3c2CN(C(=O)N[C@H](CN(C)C)c2ccccc2)C3(C)C)c2sccc2n1
How it was run: as §1

dasatinib = compound: Cc1nc(Nc2ncc(C(=O)Nc3c(C)cccc3Cl)s2)cc(N2CCN(CCO)CC2)n1 [dasatinib]
How it was run: as §1

[2] = compound: Cc1ncc(-c2ccnc(Nc3ccc(S(C)(=O)=O)cc3)n2)n1C(C)C
How it was run: as §1

[3] = compound: Cn1cc(-c2ccc3c(c2)CCN3C(=O)Cc2cccc(C(F)(F)F)c2)c2c(N)ncnc21
How it was run: as §1

quisinostat = compound: Cn1cc(CNCC2CCN(c3ncc(C(=O)NO)cn3)CC2)c2ccccc21 [quisinostat]
How it was run: as §1

tipifarnib = compound: Cn1cncc1[C@@](N)(c1ccc(Cl)cc1)c1ccc2c(c1)c(-c1cccc(Cl)c1)cc(=O)n2C [tipifarnib]
How it was run: as §1

[4] = compound: NC(=O)Nc1cc(-c2cccc(F)c2)sc1C(=O)N[C@H]1CCCNC1
How it was run: as §1

[5] = compound: NC(=O)c1cnc(N[C@@H]2CCCC[C@@H]2N)nc1Nc1cccc(-n2nccn2)c1
How it was run: as §1

[6] = compound: NC1(c2ccc(-c3nc4ccn5c(=O)[nH]nc5c4cc3-c3ccccc3)cc2)CCC1
How it was run: as §1

[7] = compound: NCC(=O)Nc1ccc(-n2nc(C(F)(F)F)cc2-c2ccc3c(ccc4ccccc43)c2)cc1
How it was run: as §1

vorinostat = compound: O=C(CCCCCCC(=O)Nc1ccccc1)NO [vorinostat]
How it was run: as §1

silmitasertib = compound: O=C(O)c1ccc2c(c1)nc(Nc1cccc(Cl)c1)c1ccncc12 [silmitasertib]
How it was run: as §1

[8] = compound: O=C1NC(=O)C(c2cnc3ccccn23)=C1c1cn2c3c(cc(F)cc13)CN(C(=O)N1CCCCC1)CC2
How it was run: as §1

entospletinib = compound: c1cn2cc(-c3ccc4cn[nH]c4c3)nc(Nc3ccc(N4CCOCC4)cc3)c2n1 [entospletinib]
How it was run: as §1

Measured: log2 fold change

CSPP1 (UniProt Q1MSJ5)
inactive: nilotinib -0.105 | [1] -0.014 | dasatinib 0.046 | [2] 0.011 | [3] -0.062 | quisinostat 0.026 | tipifarnib 0.078 | [4] 0.015 | [5] -0.227 | [6] 0.011 | [7] 0.122 | vorinostat 0.085 | silmitasertib -0.027 | [8] 0.043 | entospletinib 0.003

CSDE1 isoform 4 (UniProt O75534)
active: vorinostat -0.33
inactive: nilotinib 0.01 | [1] -0.018 | dasatinib -0.012 | [2] 0.001 | [3] 0.048 | quisinostat 0.014 | tipifarnib 0.012 | [4] 0.041 | [5] -0.009 | [6] -0.016 | [7] -0.004 | silmitasertib 0.015 | [8] -0.009 | entospletinib 0.04

CRBN (UniProt Q96SW2)
inactive: nilotinib 0.007 | [1] -0.012 | dasatinib 0.006 | [2] 0.016 | [3] 0.008 | quisinostat -0.015 | tipifarnib -0.017 | [4] 0 | [5] 0 | [6] 0.02 | [7] 0.006 | vorinostat -0.063 | silmitasertib -0.01 | [8] 0.024 | entospletinib 0.012

CTSC (UniProt P53634)
inactive: nilotinib -0.031 | [1] -0.034 | dasatinib 0.038 | [2] 0 | [3] -0.007 | quisinostat -0.064 | tipifarnib 0.011 | [4] -0.018 | [5] -0.009 | [6] 0.015 | [7] 0 | vorinostat 0.047 | silmitasertib 0.01 | [8] -0.004 | entospletinib -0.007

CSTF2T (UniProt Q9H0L4)
inactive: nilotinib 0.01 | [1] 0.011 | dasatinib 0.014 | [2] -0.033 | [3] -0.021 | quisinostat 0.043 | tipifarnib 0.009 | [4] -0.013 | [5] 0.014 | [6] -0.015 | [7] 0.009 | vorinostat 0.019 | silmitasertib -0.033 | [8] -0.035 | entospletinib -0.04

CTBS (UniProt Q01459)
inactive: nilotinib 0.043 | [1] -0.023 | dasatinib 0.034 | [2] 0.067 | [3] -0.005 | quisinostat 0.031 | tipifarnib -0.023 | [4] 0.021 | [5] -0.032 | [6] -0.03 | [7] 0.072 | vorinostat 0.123 | silmitasertib -0.017 | [8] 0.014 | entospletinib 0

CRPPA (UniProt A4D126)
inactive: nilotinib -0.037 | [1] -0.018 | dasatinib 0.02 | [2] 0.017 | [3] -0.019 | quisinostat -0.062 | tipifarnib 0.008 | [4] 0.013 | [5] 0.022 | [6] 0.028 | [7] 0.015 | vorinostat 0.039 | silmitasertib -0.03 | [8] -0.004 | entospletinib -0.008

CWC15 (UniProt Q9P013)
inactive: nilotinib -0.055 | [1] 0.047 | dasatinib 0.023 | [2] -0.032 | [3] -0.057 | quisinostat 0.075 | tipifarnib -0.034 | [4] -0.008 | [5] 0.02 | [6] 0.053 | [7] 0.01 | vorinostat 0.065 | silmitasertib 0.02 | [8] 0.016 | entospletinib 0.036

CRTC2 (UniProt Q53ET0)
inactive: nilotinib -0.038 | [1] 0.04 | dasatinib 0.035 | [2] -0.061 | [3] -0.021 | quisinostat -0.059 | tipifarnib -0.103 | [4] 0.05 | [5] 0.002 | [6] 0.005 | [7] 0.093 | vorinostat -0.08 | silmitasertib -0.047 | [8] 0.015 | entospletinib -0.011

CRELD2 isoform 5 (UniProt Q6UXH1)
inactive: nilotinib 0.126 | [1] -0.147 | dasatinib 0.069 | [2] 0.215 | [3] -0.017 | quisinostat 0 | tipifarnib -0.096 | [4] -0.038 | [5] 0.015 | [6] 0.015 | [7] 0.016 | vorinostat -0.093 | silmitasertib -0.218 | [8] -0.06 | entospletinib -0.018

CXorf38 (UniProt Q8TB03)
active: vorinostat -0.227
inactive: nilotinib 0.029 | [1] 0.013 | dasatinib -0.04 | [2] 0.053 | [3] -0.034 | quisinostat 0.004 | tipifarnib 0.002 | [4] 0.006 | [5] 0.049 | [6] 0.009 | [7] 0.092 | silmitasertib -0.013 | [8] 0.042 | entospletinib -0.073

CST3 (UniProt P01034)
inactive: nilotinib -0.021 | [1] -0.023 | dasatinib 0.031 | [2] -0.048 | [3] 0.096 | quisinostat 0.033 | tipifarnib -0.004 | [4] -0.062 | [5] -0.028 | [6] 0.039 | [7] -0.012 | vorinostat 0.185 | silmitasertib 0.038 | [8] -0.001 | entospletinib -0.027

CTDP1 (UniProt Q9Y5B0)
inactive: nilotinib 0.007 | [1] 0.002 | dasatinib -0.028 | [2] -0.016 | [3] -0.004 | quisinostat -0.109 | tipifarnib 0.018 | [4] 0.006 | [5] 0.023 | [6] -0.014 | [7] -0.039 | vorinostat -0.232 | silmitasertib 0.002 | [8] -0.003 | entospletinib 0.008

CSNK2A2 (UniProt P19784)
inactive: nilotinib -0.031 | [1] 0.195 | dasatinib -0.039 | [2] 0.254 | [3] -0.004 | quisinostat 0.001 | tipifarnib -0.014 | [4] 0.094 | [5] 0.018 | [6] -0.003 | [7] 0.383 | vorinostat -0.105 | [8] -0.008 | entospletinib 0.466
active: silmitasertib 0.879

CTSH (UniProt P09668)
inactive: nilotinib 0.022 | [1] 0.013 | dasatinib 0.046 | [2] 0.023 | [3] 0.004 | quisinostat -0.022 | tipifarnib 0.001 | [4] -0.029 | [5] -0.008 | [6] -0.018 | [7] 0.003 | vorinostat 0.067 | silmitasertib -0.024 | [8] 0.036 | entospletinib 0.092

CUX1 isoform 3 (UniProt P39880)
inactive: nilotinib -0.029 | [1] 0.026 | dasatinib -0.04 | [2] 0.012 | [3] 0.006 | quisinostat -0.02 | tipifarnib -0.057 | [4] 0.006 | [5] 0.03 | [6] -0.015 | [7] 0.008 | vorinostat 0.005 | silmitasertib 0.025 | [8] -0.022 | entospletinib -0.014

CTSZ (UniProt Q9UBR2)
inactive: nilotinib -0.047 | [1] 0.003 | dasatinib 0.03 | [2] -0.037 | [3] 0.036 | quisinostat -0.025 | tipifarnib -0.046 | [4] 0.009 | [5] 0 | [6] -0.012 | [7] 0.027 | vorinostat 0.14 | silmitasertib 0.029 | [8] 0.013 | entospletinib -0.016

CREB1 (UniProt P16220)
inactive: nilotinib 0.033 | [1] 0.01 | dasatinib -0.02 | [2] 0.048 | [3] -0.003 | quisinostat 0.004 | tipifarnib 0.048 | [4] -0.011 | [5] -0.021 | [6] 0.021 | [7] -0.013 | vorinostat 0.07 | silmitasertib -0.004 | [8] -0.006 | entospletinib 0.029

Quoted at random: two entries already listed
CUX1 isoform 3 (UniProt P39880)
inactive: nilotinib -0.029 | [1] 0.026 | dasatinib -0.04 | [2] 0.012 | [3] 0.006 | quisinostat -0.02 | tipifarnib -0.057 | [4] 0.006 | [5] 0.03 | [6] -0.015 | [7] 0.008 | vorinostat 0.005 | silmitasertib 0.025 | [8] -0.022 | entospletinib -0.014

CSNK2A2 (UniProt P19784)
inactive: nilotinib -0.031 | [1] 0.195 | dasatinib -0.039 | [2] 0.254 | [3] -0.004 | quisinostat 0.001 | tipifarnib -0.014 | [4] 0.094 | [5] 0.018 | [6] -0.003 | [7] 0.383 | vorinostat -0.105 | [8] -0.008 | entospletinib 0.466
active: silmitasertib 0.879

Later entries

CYBA (UniProt P13498)
inactive: nilotinib -0.03 | [1] 0.094 | dasatinib -0.057 | [2] -0.035 | [3] 0.022 | quisinostat 0.056 | tipifarnib 0.038 | [4] 0.018 | [5] -0.048 | [6] 0.019 | [7] 0.033 | vorinostat 0.116 | silmitasertib -0.042 | [8] -0.013 | entospletinib 0.021
